Measurements: the supplement of paper PMC7877785
± gives the uncertainty stated by the source. The uncertainty is large for many entries.

Assay: self-splicing fitness, log relative to wild type (ln ratio); higher = more splicing; Tetrahymena group I intron in knt gene, E. coli kanamycin selection, DiMSum; sequences stand for … in CUCUCU…GGAGGGAAAAGUUAUCAGGCAUGCACCUGGUAGCUAGUCUUUAAACCAAUAGAUUGCAUCGGUUUAAAAGGCAAGACCGUCAAAUUGCGGGAAAGGGGUCAACAGCCGUUCAGUACCAAGUCUCAGGGGAAACUUUGAGAUGGCCUUGCAAAGGGUAUGGUAAUAAGCUGACGGACAUGGUCCUAACCACGCAGCCAAGUCCUAAGUCAACAGAUCUUCUGUUGAUAUGGAUGCAGUUCACAGACUAAAUGUCGGUCGGGGAAGAUGUAUUCUUCUCAUAAGAUAUAGUCGGACCUCUCCUUAAUGGGAGCUAGCGGAUGAAGUGAUGCAACACUGGAGCCGCUGGGAACUAAUUUGUAUGCGAAAGUAUAUUGAUUAGUUUUGGAGUACUCGUGGUCG
In short: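 DiMSum derived fitness as the error-weighted combination of fold changes across replicates, kanamycin versus no kanamycin, normalised to wild type. E. coli BL21(DE3) held the library, which randomised all eight P1ex-region intron nucleotides within the knt kanamycin-resistance gene on pET-22b(+). Six replicate transformations grew overnight at 37°C or 30°C on LB agar with or without 25 μg/mL kanamycin, also containing 100 μg/mL carbenicillin, 50 μM IPTG and 0.2% rhamnose, and pooled colonies were amplicon-sequenced on an Illumina HiSeq 2500.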

Row | Sequence | self-splicing fitness (ln) (30 °C) | self-splicing fitness (ln) (37 °C)
1 | AAAGAGCAAUAUUACGAAAA | -3.5 ± 0.53 | -0.77 ± 0.4
2 | GGAUAGCAAUAUUACGCUAA | -2.07 ± 0.16 | -1.03 ± 0.22
3 | CUGAAGCAAUAUUACGCCCA | – | -2.17 ± 0.5
4 | CCAUAGCAAUAUUACGGCCC | – | -1.94 ± 0.57
5 | UUCAAGCAAUAUUACGCUUC | -3.09 ± 0.22 | -2.8 ± 0.44
6 | GCCGAGCAAUAUUACGCCGA | -1.27 ± 1 | -1.07 ± 0.74
7 | GAUGAGCAAUAUUACGCCCC | -0.716 ± 0.71 | -1.13 ± 1.2
8 | AUGGAGCAAUAUUACGGUGC | – | -3.03 ± 0.6
9 | AACGAGCAAUAUUACGGAAC | – | -3.31 ± 0.52
10 | UUUUAGCAAUAUUACGCAAC | -0.628 ± 0.87 | –
11 | AAUUAGCAAUAUUACGCCAG | -2.88 ± 0.66 | –
12 | GGGCAGCAAUAUUACGUCGG | -0.72 ± 0.12 | 0.392 ± 0.15
13 | UGUCAGCAAUAUUACGCUAG | -0.41 ± 0.061 | -0.214 ± 0.077
14 | CUCCAGCAAUAUUACGCGUA | -4.05 ± 1 | –
15 | CGAAAGCAAUAUUACGCAUC | -3.99 ± 0.61 | –
16 | CCUAAGCAAUAUUACGUACU | -3.76 ± 0.43 | -3.01 ± 0.29
17 | GGAGAGCAAUAUUACGAUAA | -3.8 ± 0.77 | –
18 | UCCUAGCAAUAUUACGGAAC | -3.65 ± 0.6 | –
19 | UAACAGCAAUAUUACGCCUC | -2.18 ± 0.35 | -2.06 ± 0.33
20 | AAGGAGCAAUAUUACGAGCU | -4.04 ± 0.59 | –
21 | UUCGAGCAAUAUUACGCCGU | 0.0702 ± 0.55 | -2.86 ± 0.62
22 | CCGAAGCAAUAUUACGCCGC | -1.87 ± 0.62 | -1.68 ± 0.63
23 | AGUAAGCAAUAUUACGAGAA | -2.01 ± 0.57 | –
24 | ACGGAGCAAUAUUACGCUCC | – | -1.28 ± 0.37

Single records, as listed above. Order of values: self-splicing fitness (ln) (30 °C) | self-splicing fitness (ln) (37 °C)
GGAGAGCAAUAUUACGAUAA as listed: -3.8 ± 0.77 | –
AGUAAGCAAUAUUACGAGAA as listed: -2.01 ± 0.57 | –

(list continues)

Row | Sequence | self-splicing fitness (ln) (30 °C) | self-splicing fitness (ln) (37 °C)
25 | UGUGAGCAAUAUUACGCUCU | – | -3.24 ± 0.52
26 | UCGUAGCAAUAUUACGUAGC | – | -3.28 ± 0.61
27 | ACAUAGCAAUAUUACGGAGC | -3.38 ± 0.53 | –
28 | GCGGAGCAAUAUUACGAGAC | – | -2.83 ± 0.53
29 | UCCCAGCAAUAUUACGGCUG | -3.88 ± 1.1 | –
30 | CCAGAGCAAUAUUACGAGAA | – | -0.75 ± 0.82
31 | CGGAAGCAAUAUUACGAGGC | -2.78 ± 0.54 | -2.08 ± 0.79
32 | CUGGAGCAAUAUUACGAUCU | -1.96 ± 0.87 | -2.19 ± 0.57
33 | UUGGAGCAAUAUUACGAAAU | -2.49 ± 0.84 | -1.48 ± 0.5
34 | GAUGAGCAAUAUUACGCUAU | – | -1.11 ± 0.73
35 | UCCGAGCAAUAUUACGGCCC | -2.57 ± 0.57 | –
36 | AGGGAGCAAUAUUACGGCUG | – | -1.69 ± 1.2
37 | GGCCAGCAAUAUUACGGCCG | -3.47 ± 0.22 | -3 ± 0.23
38 | UCUUAGCAAUAUUACGUAAU | -5 ± 0.45 | -2.58 ± 0.2
39 | ACGGAGCAAUAUUACGCUGU | -4.79 ± 0.71 | –
40 | AGGGAGCAAUAUUACGGAAU | -4.67 ± 0.73 | -2.13 ± 0.56
41 | GCGGAGCAAUAUUACGGUGC | – | -1.84 ± 1.1
42 | UGGUAGCAAUAUUACGGGGU | – | -2.96 ± 0.75
43 | CUCCAGCAAUAUUACGCGCA | -3.34 ± 0.31 | -2.56 ± 0.49
44 | AAUGAGCAAUAUUACGCACC | -3.19 ± 0.78 | –
45 | CUGGAGCAAUAUUACGGUGC | – | -2.3 ± 0.56
46 | GUCGAGCAAUAUUACGGACC | -3.4 ± 0.82 | -0.778 ± 1.4
47 | CGAGAGCAAUAUUACGGAGG | – | -2.9 ± 0.53
48 | AUAGAGCAAUAUUACGAGUC | – | -2.73 ± 0.79

Row | Sequence | self-splicing fitness (ln) (30 °C) | self-splicing fitness (ln) (37 °C)
49 | GUCGAGCAAUAUUACGAGAG | -4.41 ± 0.72 | -3.91 ± 0.72
50 | UUGAAGCAAUAUUACGAGUC | -3.73 ± 0.32 | -2.8 ± 0.38
51 | UACGAGCAAUAUUACGCCCU | – | -3.25 ± 1
52 | UUCGAGCAAUAUUACGCCCC | -2.57 ± 0.66 | –
53 | AAUAAGCAAUAUUACGCUGA | -1.81 ± 0.17 | -1.63 ± 0.18
54 | UAUGAGCAAUAUUACGAGGU | -4.66 ± 1 | –
55 | UAGGAGCAAUAUUACGCAGC | -4.73 ± 0.51 | –
56 | AGGCAGCAAUAUUACGCCUC | – | -3.73 ± 1
57 | ACUGAGCAAUAUUACGGAAC | -3.67 ± 0.61 | –
58 | GCGGAGCAAUAUUACGGUUU | -3.52 ± 0.54 | –
59 | UGAGAGCAAUAUUACGGAAA | -3.06 ± 1.1 | –
60 | GCAGAGCAAUAUUACGCCUG | -4.23 ± 0.72 | –
61 | AUUAAGCAAUAUUACGAUUG | -2.98 ± 0.15 | -1.86 ± 0.2
62 | GGGUAGCAAUAUUACGCUAC | – | -0.685 ± 0.82
63 | UUGAAGCAAUAUUACGGUCC | 0.526 ± 1.1 | –
64 | GACGAGCAAUAUUACGACAG | -3.85 ± 0.53 | –
65 | UCGAAGCAAUAUUACGUCGA | -3.65 ± 0.47 | -1.78 ± 0.19
66 | GGACAGCAAUAUUACGUUAU | -0.282 ± 0.046 | 0.102 ± 0.066
67 | GGAGAGCAAUAUUACGUAUG | -3.12 ± 0.76 | -3.28 ± 0.52
68 | CUUCAGCAAUAUUACGAGUA | -1.21 ± 0.4 | -3.37 ± 0.73
69 | GUGUAGCAAUAUUACGCUGC | -3.26 ± 0.27 | -1.08 ± 0.23
70 | UGCUAGCAAUAUUACGUAUC | -3.17 ± 0.74 | –
71 | GUGCAGCAAUAUUACGAUAC | -1.58 ± 0.2 | -0.0479 ± 0.17
72 | GGUGAGCAAUAUUACGUGUU | -5.04 ± 0.58 | –

Row | Sequence | self-splicing fitness (ln) (30 °C) | self-splicing fitness (ln) (37 °C)
73 | AACGAGCAAUAUUACGCUCC | -2.47 ± 0.67 | -2.19 ± 0.64
74 | UCCAAGCAAUAUUACGGGGC | -4.07 ± 0.23 | -3.13 ± 0.2
75 | UAAUAGCAAUAUUACGCAUG | -1.4 ± 0.085 | 0.553 ± 0.13
76 | GGUGAGCAAUAUUACGAGCC | -2.84 ± 0.53 | –
77 | UGAGAGCAAUAUUACGAAAC | -1.93 ± 0.69 | –
78 | AGUGAGCAAUAUUACGUGUC | -3.88 ± 0.6 | -2.2 ± 0.64
79 | UAGCAGCAAUAUUACGAUCA | 0.112 ± 0.088 | 0.169 ± 0.099
80 | AUGGAGCAAUAUUACGCUGC | -4.44 ± 0.74 | –
81 | GUGGAGCAAUAUUACGACCC | -0.828 ± 0.58 | -0.506 ± 0.87
82 | CUUUAGCAAUAUUACGCUAC | – | -2.07 ± 0.65
83 | CAAAAGCAAUAUUACGAAAC | -4.17 ± 0.39 | -3.75 ± 0.33
84 | GAGGAGCAAUAUUACGGCUA | -1.75 ± 0.12 | -1.37 ± 0.11
85 | CUCUAGCAAUAUUACGUUAC | -3.53 ± 0.52 | -3.08 ± 1.1
86 | GUAUAGCAAUAUUACGACGA | -1.78 ± 0.24 | -0.483 ± 0.19
87 | CCUGAGCAAUAUUACGUAAC | -4.29 ± 1.1 | –
88 | CCUGAGCAAUAUUACGACCU | -2.65 ± 0.79 | -3.34 ± 1
89 | AAAGAGCAAUAUUACGGUAG | -3.9 ± 0.27 | -2.11 ± 0.18
90 | CCACAGCAAUAUUACGAGCG | -0.707 ± 0.048 | 0.184 ± 0.065
91 | AAAUAGCAAUAUUACGUAAG | -1.37 ± 0.078 | -0.721 ± 0.096
92 | GAGGAGCAAUAUUACGAAGU | -3.84 ± 0.52 | -1.76 ± 0.6
93 | GUGGAGCAAUAUUACGCAGA | -2.66 ± 0.66 | 0.0117 ± 1.2
94 | CAAAAGCAAUAUUACGCCAU | -3.4 ± 0.2 | -2.61 ± 0.23
95 | UCGGAGCAAUAUUACGAAGC | -2.33 ± 0.55 | –
96 | GGCCAGCAAUAUUACGCCGC | – | -2.46 ± 0.54

Row | Sequence | self-splicing fitness (ln) (30 °C) | self-splicing fitness (ln) (37 °C)
97 | UAAGAGCAAUAUUACGGAGC | – | -3.69 ± 1
98 | CUAGAGCAAUAUUACGAAAU | – | -1.62 ± 0.68
99 | GCGUAGCAAUAUUACGCGAA | -2.65 ± 1.1 | –
100 | GUGGAGCAAUAUUACGGCAG | -2.38 ± 0.51 | -0.726 ± 0.84
101 | AGCAAGCAAUAUUACGUCUU | -1.38 ± 0.068 | -0.234 ± 0.074
102 | UAGAAGCAAUAUUACGUCAC | – | -3.41 ± 0.52
103 | GCGGAGCAAUAUUACGGCGC | – | -1.44 ± 0.59
104 | AACGAGCAAUAUUACGCCUG | – | -2.99 ± 0.75
105 | UUGCAGCAAUAUUACGUCCC | -4.37 ± 0.72 | –
106 | GGUGAGCAAUAUUACGCCGC | -0.844 ± 1 | –
107 | CGCGAGCAAUAUUACGAUAA | -3.48 ± 0.56 | -3.08 ± 1
108 | GGCGAGCAAUAUUACGGAAA | – | -1.61 ± 0.53
109 | GUAGAGCAAUAUUACGGCAC | – | -0.267 ± 0.73
110 | UCGGAGCAAUAUUACGUCAA | -2.81 ± 0.55 | –
111 | GUCGAGCAAUAUUACGGGUC | – | -2.97 ± 0.61
112 | UCAUAGCAAUAUUACGGGCC | -3.34 ± 0.6 | -3.67 ± 0.46
113 | GGUGAGCAAUAUUACGCCGU | – | -3.52 ± 0.73
114 | CAGUAGCAAUAUUACGCGCC | -2.48 ± 1.1 | -1.13 ± 0.87
115 | CGGCAGCAAUAUUACGCUAC | -3.67 ± 0.74 | -2.08 ± 0.79
116 | GCCCAGCAAUAUUACGACAU | -1.515 ± 0.012 | -0.82 ± 0.032

Random excerpt: 5 records from the list.
Row | Sequence | self-splicing fitness (ln) (30 °C) | self-splicing fitness (ln) (37 °C)
105 | UUGCAGCAAUAUUACGUCCC | -4.37 ± 0.72 | –
102 | UAGAAGCAAUAUUACGUCAC | – | -3.41 ± 0.52
104 | AACGAGCAAUAUUACGCCUG | – | -2.99 ± 0.75
97 | UAAGAGCAAUAUUACGGAGC | – | -3.69 ± 1
113 | GGUGAGCAAUAUUACGCCGU | – | -3.52 ± 0.73
